Measurements taken from the supplement of paper PMC10849652.
The other results are listed elsewhere or left out. Residues, ends and D or L forms follow the SMILES beside them. *: point of attachment. Cbz = O=C(OCc1ccccc1)*

Amino acid sequences for entries named in this document (tags omitted). A change or cut given only in a name is not applied to a line headed by its entry.
UniProt P02655: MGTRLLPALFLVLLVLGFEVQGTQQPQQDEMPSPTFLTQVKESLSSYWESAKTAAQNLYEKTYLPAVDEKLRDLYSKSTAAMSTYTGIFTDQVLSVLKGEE
UniProt Q8IUX4: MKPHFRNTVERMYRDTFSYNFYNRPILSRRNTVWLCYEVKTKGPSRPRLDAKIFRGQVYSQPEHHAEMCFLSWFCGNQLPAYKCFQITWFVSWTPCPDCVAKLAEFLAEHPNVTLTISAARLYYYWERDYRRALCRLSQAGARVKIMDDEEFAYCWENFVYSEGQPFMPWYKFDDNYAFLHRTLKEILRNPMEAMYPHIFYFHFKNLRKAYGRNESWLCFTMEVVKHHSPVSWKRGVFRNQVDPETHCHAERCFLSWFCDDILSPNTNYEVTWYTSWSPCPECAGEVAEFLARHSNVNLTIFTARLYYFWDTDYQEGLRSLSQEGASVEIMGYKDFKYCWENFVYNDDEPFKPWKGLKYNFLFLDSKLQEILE
UniProt Q8WW43, whole entry, looked up: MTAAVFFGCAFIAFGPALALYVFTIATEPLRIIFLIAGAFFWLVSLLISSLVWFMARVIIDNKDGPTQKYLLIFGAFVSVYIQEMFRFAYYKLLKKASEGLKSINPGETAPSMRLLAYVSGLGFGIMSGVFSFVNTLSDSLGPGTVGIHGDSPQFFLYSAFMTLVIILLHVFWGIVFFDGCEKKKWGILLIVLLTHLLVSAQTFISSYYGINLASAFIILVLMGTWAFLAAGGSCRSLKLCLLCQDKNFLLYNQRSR
UniProt Q99767, whole entry, looked up: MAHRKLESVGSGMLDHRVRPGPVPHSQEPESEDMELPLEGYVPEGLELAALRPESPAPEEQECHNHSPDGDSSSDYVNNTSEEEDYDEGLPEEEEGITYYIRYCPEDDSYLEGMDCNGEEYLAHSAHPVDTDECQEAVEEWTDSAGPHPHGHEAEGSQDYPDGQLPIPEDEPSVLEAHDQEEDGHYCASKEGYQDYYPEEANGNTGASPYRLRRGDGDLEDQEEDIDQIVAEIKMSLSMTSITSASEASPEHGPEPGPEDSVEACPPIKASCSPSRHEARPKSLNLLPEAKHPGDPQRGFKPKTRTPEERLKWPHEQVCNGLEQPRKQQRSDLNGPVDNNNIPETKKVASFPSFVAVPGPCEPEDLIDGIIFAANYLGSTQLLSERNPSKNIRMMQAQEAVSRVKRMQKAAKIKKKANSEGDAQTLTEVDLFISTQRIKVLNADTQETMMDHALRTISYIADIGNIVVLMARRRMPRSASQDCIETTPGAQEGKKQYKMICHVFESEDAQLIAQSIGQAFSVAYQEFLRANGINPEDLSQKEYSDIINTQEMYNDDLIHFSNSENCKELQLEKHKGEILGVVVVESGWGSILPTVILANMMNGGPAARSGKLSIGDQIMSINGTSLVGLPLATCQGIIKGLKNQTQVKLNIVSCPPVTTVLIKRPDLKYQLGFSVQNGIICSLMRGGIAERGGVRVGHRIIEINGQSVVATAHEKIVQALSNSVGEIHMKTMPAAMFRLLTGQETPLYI
UniProt Q86XL3: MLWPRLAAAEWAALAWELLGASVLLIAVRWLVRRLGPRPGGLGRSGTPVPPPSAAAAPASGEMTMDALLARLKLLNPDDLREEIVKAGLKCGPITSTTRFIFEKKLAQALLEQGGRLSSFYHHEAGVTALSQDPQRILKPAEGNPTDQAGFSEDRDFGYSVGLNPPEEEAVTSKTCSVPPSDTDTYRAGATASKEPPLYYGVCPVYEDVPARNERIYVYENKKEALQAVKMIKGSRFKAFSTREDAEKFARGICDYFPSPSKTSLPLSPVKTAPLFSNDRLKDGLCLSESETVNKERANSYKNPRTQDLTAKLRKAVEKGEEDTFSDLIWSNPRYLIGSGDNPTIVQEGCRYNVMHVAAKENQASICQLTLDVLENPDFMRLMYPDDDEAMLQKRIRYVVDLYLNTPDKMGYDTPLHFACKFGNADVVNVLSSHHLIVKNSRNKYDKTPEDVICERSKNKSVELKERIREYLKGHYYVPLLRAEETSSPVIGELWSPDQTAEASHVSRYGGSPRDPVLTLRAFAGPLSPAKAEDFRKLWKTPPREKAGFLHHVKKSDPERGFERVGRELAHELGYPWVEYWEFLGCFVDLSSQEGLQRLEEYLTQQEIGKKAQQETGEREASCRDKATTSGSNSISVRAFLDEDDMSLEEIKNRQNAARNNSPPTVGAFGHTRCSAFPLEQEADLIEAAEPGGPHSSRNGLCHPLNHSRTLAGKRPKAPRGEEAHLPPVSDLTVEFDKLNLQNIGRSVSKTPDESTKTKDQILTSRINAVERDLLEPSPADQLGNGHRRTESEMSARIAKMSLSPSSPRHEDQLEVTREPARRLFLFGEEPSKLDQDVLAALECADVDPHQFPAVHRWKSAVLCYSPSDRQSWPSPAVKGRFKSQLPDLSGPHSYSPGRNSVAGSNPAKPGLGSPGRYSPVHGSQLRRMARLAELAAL
UniProt P56377: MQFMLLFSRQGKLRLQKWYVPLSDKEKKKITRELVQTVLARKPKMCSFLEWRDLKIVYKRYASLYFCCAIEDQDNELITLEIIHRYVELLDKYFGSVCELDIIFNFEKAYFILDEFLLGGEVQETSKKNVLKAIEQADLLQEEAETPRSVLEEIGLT
UniProt O43182: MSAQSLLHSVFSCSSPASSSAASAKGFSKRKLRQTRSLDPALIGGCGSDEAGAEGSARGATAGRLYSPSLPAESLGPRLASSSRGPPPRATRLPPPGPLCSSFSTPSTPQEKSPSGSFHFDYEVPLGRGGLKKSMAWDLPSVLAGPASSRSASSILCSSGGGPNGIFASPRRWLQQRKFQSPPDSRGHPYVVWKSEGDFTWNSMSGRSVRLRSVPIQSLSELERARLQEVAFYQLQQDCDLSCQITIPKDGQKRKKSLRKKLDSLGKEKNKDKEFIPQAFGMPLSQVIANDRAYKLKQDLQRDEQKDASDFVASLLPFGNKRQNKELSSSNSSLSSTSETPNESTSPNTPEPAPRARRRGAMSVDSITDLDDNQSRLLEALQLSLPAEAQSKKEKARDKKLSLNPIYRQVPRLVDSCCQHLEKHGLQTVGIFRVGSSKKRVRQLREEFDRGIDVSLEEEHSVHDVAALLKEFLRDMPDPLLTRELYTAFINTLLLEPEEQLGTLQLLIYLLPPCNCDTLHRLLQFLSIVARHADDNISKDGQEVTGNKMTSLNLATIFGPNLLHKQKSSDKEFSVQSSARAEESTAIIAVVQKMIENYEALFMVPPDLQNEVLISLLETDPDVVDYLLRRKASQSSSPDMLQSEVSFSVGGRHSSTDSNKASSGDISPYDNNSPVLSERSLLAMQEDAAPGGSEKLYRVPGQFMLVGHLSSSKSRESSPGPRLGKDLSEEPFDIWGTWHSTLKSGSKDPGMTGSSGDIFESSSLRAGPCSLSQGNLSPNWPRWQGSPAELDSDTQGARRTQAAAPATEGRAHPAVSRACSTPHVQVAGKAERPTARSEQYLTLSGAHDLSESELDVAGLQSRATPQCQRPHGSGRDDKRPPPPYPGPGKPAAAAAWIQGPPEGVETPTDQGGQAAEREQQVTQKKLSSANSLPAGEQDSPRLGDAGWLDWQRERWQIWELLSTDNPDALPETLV
UniProt Q9BZZ5: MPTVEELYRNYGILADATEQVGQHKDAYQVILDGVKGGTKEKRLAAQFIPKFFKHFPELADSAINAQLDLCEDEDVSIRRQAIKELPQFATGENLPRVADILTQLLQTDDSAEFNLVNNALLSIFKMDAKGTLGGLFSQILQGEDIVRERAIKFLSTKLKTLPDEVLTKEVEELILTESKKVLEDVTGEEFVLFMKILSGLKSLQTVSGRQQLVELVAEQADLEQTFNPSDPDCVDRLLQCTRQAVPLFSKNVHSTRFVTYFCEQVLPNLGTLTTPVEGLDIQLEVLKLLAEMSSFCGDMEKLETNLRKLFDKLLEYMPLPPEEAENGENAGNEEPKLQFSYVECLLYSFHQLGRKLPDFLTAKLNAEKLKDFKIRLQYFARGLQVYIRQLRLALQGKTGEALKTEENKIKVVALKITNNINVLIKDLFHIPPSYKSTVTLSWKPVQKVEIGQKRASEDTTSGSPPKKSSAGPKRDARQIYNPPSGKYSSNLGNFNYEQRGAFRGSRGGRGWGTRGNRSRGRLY
UniProt Q8NFD5, whole entry, looked up: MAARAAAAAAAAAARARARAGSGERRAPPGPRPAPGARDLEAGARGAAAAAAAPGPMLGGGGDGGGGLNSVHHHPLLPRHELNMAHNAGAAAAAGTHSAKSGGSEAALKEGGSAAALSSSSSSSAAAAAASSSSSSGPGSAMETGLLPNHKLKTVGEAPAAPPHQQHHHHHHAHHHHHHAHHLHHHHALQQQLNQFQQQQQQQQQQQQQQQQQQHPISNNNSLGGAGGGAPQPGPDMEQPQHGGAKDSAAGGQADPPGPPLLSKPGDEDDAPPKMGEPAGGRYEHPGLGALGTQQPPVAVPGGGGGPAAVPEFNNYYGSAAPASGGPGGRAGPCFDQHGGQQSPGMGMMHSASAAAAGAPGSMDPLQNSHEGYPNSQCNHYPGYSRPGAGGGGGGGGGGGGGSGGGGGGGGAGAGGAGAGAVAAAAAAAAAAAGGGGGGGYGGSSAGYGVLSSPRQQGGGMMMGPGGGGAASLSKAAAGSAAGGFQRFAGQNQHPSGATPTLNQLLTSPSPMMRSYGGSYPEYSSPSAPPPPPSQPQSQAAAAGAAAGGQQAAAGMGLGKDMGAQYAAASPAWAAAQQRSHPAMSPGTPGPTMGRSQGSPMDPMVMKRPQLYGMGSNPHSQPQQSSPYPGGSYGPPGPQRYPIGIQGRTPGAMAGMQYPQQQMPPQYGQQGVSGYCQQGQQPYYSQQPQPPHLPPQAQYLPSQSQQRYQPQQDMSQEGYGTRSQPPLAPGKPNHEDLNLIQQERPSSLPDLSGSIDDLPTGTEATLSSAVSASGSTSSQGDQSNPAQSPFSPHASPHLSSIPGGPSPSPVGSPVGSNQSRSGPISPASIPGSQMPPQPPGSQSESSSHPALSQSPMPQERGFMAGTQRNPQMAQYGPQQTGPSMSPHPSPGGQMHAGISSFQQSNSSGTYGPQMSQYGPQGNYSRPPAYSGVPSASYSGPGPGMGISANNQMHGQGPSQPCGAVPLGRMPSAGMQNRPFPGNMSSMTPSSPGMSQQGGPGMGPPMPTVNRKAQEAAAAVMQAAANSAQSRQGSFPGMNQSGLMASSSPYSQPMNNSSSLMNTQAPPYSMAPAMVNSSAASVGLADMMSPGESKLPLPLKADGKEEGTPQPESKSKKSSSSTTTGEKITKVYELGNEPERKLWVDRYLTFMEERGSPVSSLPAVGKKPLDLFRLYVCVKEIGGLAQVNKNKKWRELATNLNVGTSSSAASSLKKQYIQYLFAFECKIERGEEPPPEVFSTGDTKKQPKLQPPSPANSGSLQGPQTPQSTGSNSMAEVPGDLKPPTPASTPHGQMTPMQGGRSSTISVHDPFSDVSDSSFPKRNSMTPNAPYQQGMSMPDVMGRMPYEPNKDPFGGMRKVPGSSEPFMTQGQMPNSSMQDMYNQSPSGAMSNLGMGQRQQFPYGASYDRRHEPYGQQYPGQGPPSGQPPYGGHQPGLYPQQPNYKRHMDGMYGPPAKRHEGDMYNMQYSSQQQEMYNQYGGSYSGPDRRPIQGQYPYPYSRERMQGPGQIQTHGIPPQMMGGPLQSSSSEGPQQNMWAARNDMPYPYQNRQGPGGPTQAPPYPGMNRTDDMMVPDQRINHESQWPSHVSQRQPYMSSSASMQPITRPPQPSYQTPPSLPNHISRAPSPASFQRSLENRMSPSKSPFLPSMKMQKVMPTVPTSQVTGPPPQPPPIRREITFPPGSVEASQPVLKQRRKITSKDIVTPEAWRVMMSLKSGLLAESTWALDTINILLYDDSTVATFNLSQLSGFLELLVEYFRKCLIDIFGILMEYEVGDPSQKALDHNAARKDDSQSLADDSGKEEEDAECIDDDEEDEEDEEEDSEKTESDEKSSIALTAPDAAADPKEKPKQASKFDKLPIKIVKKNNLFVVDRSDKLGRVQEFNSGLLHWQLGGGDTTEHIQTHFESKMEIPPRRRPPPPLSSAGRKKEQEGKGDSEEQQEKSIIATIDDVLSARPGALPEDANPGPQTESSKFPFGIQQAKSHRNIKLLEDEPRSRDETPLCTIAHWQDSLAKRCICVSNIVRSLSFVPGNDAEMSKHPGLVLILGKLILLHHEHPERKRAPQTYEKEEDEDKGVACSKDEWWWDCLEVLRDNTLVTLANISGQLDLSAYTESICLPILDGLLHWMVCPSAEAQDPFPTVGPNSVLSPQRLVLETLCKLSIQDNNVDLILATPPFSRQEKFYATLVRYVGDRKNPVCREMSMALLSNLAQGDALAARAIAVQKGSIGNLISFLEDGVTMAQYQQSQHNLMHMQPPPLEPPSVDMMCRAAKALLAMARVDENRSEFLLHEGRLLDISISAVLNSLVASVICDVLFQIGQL

Assays:
Experiment in all cases: log2 fold change, soluble protein after heating vs DMSO (PISA); higher = thermal stabilisation; K562 cells, 10 uM, 30 min; active = over 0.2 and 3.5 SD of the protein, either way, in both replicates (recomputed)
[1] = compound: C/C(=N\NC(=O)C1=CC(=CC=C1)S(=O)(=O)N2CCOCC2)/C3=C(C=CC(=C3)Cl)O
Method in brief: (§1)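 For each measurement, 10 μM compound was applied for 30 min to K562 cells at 2×10^6 cells/mL. Aliquots were heated for 3 min across 48°C-58°C, pooled, and extracted in PBS with 0.5% NP-40 at 4°C; the supernatant after 21,000xg for 90 min was soluble protein. This was quantified by TMTpro 16plex LC-MS/MS with channel sums equalised, and thermal stability was reported relative to control samples from duplicates, on a log2 fold-change scale.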

[2] = compound: C1=CC(=C(C=C1Cl)C2=NC3=NC=CN=C3C(=N2)NC4=CC=NC=C4)F
Method in brief: as §1

[3] = compound: C1=CC2=C(C=CC(=C2)/C=C\3/C(=O)NC(=NCC4=CC=CS4)S3)N=C1
Method in brief: as §1

[4] = compound: C1=CC2=NC=CN=C2C=C1/C=C/3\C(=O)NC(=O)S3
Method in brief: as §1

[5] = compound: C1=CC=C2C(=C1)C3=NNC4=CC=CC(=C43)C2=O
Method in brief: as §1

[6] = compound: C1CCN(C1)C(=O)NC2=CC=CC(=C2)NC3=NC=C(C(=N3)NCCC4=CN=CN4)Br
Method in brief: as §1

[7] = compound: C1CN(CCC1(CC2=CC=C(C=C2)Cl)N)C3=NC=NC4=C3C=CN4
Method in brief: as §1

IRAK-1-4 Inhibitor I = compound: C1COCCN1CCN2C3=CC=CC=C3N=C2NC(=O)C4=CC(=CC=C4)[N+](=O)[O-] [IRAK-1-4 Inhibitor I]
Method in brief: as §1

ibrutinib = compound: C=CC(=O)N1CCC[C@@H](n2nc(-c3ccc(Oc4ccccc4)cc3)c3c(N)ncnc32)C1 [ibrutinib]
Method in brief: as §1

[8] = compound: CC(=O)c1cnc2ccc(-c3cc(Cl)c(O)c(Cl)c3)nc2c1N[C@H]1CC[C@H](CN(C)C)CC1
Method in brief: as §1

[9] = compound: CC(C)(O)CC(=O)NCCn1ccc2ncnc(Nc3ccc(Oc4cccc(C(F)(F)F)c4)c(Cl)c3)c21
Method in brief: as §1

pinometostat = compound: CC(C)N(C[C@H]1O[C@@H](n2cnc3c(N)ncnc32)[C@H](O)[C@@H]1O)[C@H]1C[C@@H](CCc2nc3cc(C(C)(C)C)ccc3[nH]2)C1 [pinometostat]
Method in brief: as §1

[10] = compound: CC1=C(C2=C(C=C1)C(=O)C3=CC=CC=C3N2CCCN)C
Method in brief: as §1

[11] = compound: CC1=C(C(CC(=O)N1)C2=CC=C(C=C2)C(F)(F)F)C(=O)NC3=C(C=C4C(=C3)C=NN4)F
Method in brief: as §1

[12] = compound: C1=CC=C(C=C1)C2=NC(=C(N2)C3=CC=NC=C3)C4=CC(=C(C=C4)Cl)O
Method in brief: as §1

ralimetinib = compound: CC(C)(C)Cn1c(N)nc2ccc(-c3[nH]c(C(C)(C)C)nc3-c3ccc(F)cc3)nc21 [ralimetinib]
Method in brief: as §1

[13] = compound: CC(C)C[C@@H](C=O)NC(=O)[C@H](CC(C)C)NC(=O)[C@H](CC(C)C)NC(=O)OCc1ccccc1
Method in brief: as §1

Measured: log2 fold change

AP2M1 (UniProt C9JTK4)
inactive: [1] -0.114 | [2] 0.036 | [3] 0.322 | [4] 0.172 | [5] -0.12 | [6] 0.084 | [7] -0.065 | IRAK-1-4 Inhibitor I 0.056 | ibrutinib -0.044 | [8] 0.049 | [9] 0.005 | pinometostat 0.03 | [10] 0.001

APOC2 (UniProt P02655)
inactive: IRAK-1-4 Inhibitor I 0.089 | pinometostat 0.032 | [11] -0.034

ARHGEF10 (UniProt O15013)
inactive: [4] 0.029 | ibrutinib -0.107

APOBEC3F (UniProt Q8IUX4)
inactive: [1] -0.295 | [2] -0.208 | [3] -0.21 | [4] 0.326 | [12] -0.05 | [5] -0.023 | IRAK-1-4 Inhibitor I -0.139 | ibrutinib -0.057 | [8] -0.244 | ralimetinib -0.047 | [9] 0.161 | [13] 0.189 | pinometostat 0.154

APH1B (UniProt Q8WW43)
inactive: [1] 0.213 | [3] -0.067 | [5] -0.08 | [8] -0.009

ANKIB1 (UniProt Q9P2G1)
inactive: [11] -0.315

APBA2 (UniProt Q99767)
inactive: [2] 0.04 | [9] -0.213

ANKLE2 (UniProt Q86XL3)
inactive: IRAK-1-4 Inhibitor I 0.038 | pinometostat 0.127

AP1S2 (UniProt P56377)
inactive: [1] 0.331 | [2] 0 | [3] -0.223 | [4] 0.027 | [5] -0.067 | IRAK-1-4 Inhibitor I 0 | ibrutinib -0.071 | [8] -0.013 | [9] -0.174 | pinometostat -0.026 | [11] 0.005

ARHGAP6 (UniProt O43182)
inactive: [1] 0.34 | [2] -0.254 | [3] -0.208 | [12] -0.07 | [5] -0.153 | [6] -0.034 | [7] -0.147 | IRAK-1-4 Inhibitor I -0.121 | [8] -0.039 | ralimetinib 0.145 | [9] 0.058 | [13] 0.188 | pinometostat 0.219 | [11] -0.105 | [10] -0.098

ARHGAP22 isoform 2 (UniProt Q7Z5H3)
inactive: [12] 0.081 | [6] -0.241 | [7] 0.048 | ralimetinib -0.003 | [13] 0.056 | [10] 0.17

API5 isoform 1 (UniProt Q9BZZ5)
inactive: [1] -0.042 | [2] 0.187 | [3] -0.017 | [5] 0.13 | [6] -0.013 | [7] 0.041 | [8] 0.038 | [9] -0.091 | [11] -0.055 | [10] 0.018

ARID1B isoform 3 (UniProt Q8NFD5)
inactive: [4] 0.017 | [12] 0.276 | ibrutinib 0.082 | ralimetinib 0.056 | [13] 0.042
